Construct, isoform or probe ends are uncertain for at least one entry.
target: DGCR8 Rhed domain (RNA-binding heme domain, heme-bound dimer) (Homo sapiens) (UniProt Q8WYQ5); test: EMSA; settings: range over all eight RNAs; 150 mM NaCl, 20 mM Tris pH 8.0, tRNA, heparin, RT; purified recombinant protein; label: 32P (alpha-32P-ATP body label)

Amino acid sequences for entries named in this document (tags omitted). Residues count along the entry.
UniProt Q8WYQ5, 285-478: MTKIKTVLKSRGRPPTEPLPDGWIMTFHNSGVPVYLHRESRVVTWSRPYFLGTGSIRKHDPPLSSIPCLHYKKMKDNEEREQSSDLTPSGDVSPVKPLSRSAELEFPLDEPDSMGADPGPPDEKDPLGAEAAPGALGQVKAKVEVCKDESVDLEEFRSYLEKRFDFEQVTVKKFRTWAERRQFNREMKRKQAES

Binding result, binds:
GGCCCGGGUUAUACCUGAUGCUCACGUAUAAGACGAGCC [pri-miR-208a apical stem-loop fragment], GGUUCACGCAUUUGCUUUACUUGCAAUGAUUAUACAACC [pri-miR-300 apical stem-loop fragment], GGUAUGCAUAUACUUCUUUGAGGAUCUGGCCUAAAGAGGUAUAGGGCAUGCC [pri-miR-202 apical stem-loop fragment], GGUCUCUUCCCAGAUUUCCCAAAGUUGGGAAAAGCUGGGUUGAGACC [pri-miR-320b-2 apical stem-loop fragment], GGCAGUGUAUUGCUAGCGGCUGUUAAUGAUUUUAACAGUUGCUAGUUGCACUCC [pri-miR-449c apical stem-loop fragment], GGUUUGCAUUUCAGCGUAUAUAUGUAUAUGUGGCUGUGCAAAUCC [pri-miR-19b-2 apical stem-loop fragment], GGUGACUCCAGGUCCUGUGUGUUACCUAGAAAUAAGCACUGGACUUGGAGUCACC [pri-miR-378a apical stem-loop fragment]
